PubChem BioAssay AID1259405 | NCATS, 2018
Here is one part, drawn at random, of about 50,000 reagents tested. In the full data, about 4,000 (8%) got an active call. 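Mouse siRNA library applied to hamster cells; one well for each siRNA.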 The numbers tell different reagents against one gene apart.

- Purpose: 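Mouse-designed siRNAs used to find CHO productivity engineering targets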 (primary screen)
- Cell system: Chinese hamster CHO-K1 ovary cells with stable secreted eGFP expression
- Knock-down reagent: single siRNA against mouse genes, 0.8 pmol siRNA per well (2 µl of 400 nM stock)
- Duration: 3 days
- Measured: 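Percent of the per-plate non-targeting control median for intracellular GFP per well by laser scanning cytometry and for cell viability by ATP luminescence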
- Scale: GFP, % of control: higher = more GFP per well, higher productivity; viability (ATP), % of control: higher = more viable cells (more ATP)
- Active means: 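Called active when intracellular GFP, relative to negative control, is at or above 120%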

no.	target gene	siRNA no.	GFP, % of control	viability (ATP), % of control	Call
1	Zmym6 (zinc finger, MYM-type 6)	1	69.6	70.8	inactive
2	Zmym6 (zinc finger, MYM-type 6)	2	36.2	53.5	inactive
3	Zmym6 (zinc finger, MYM-type 6)	3	73.3	52.4	inactive
4	Mlc1	1	90.6	104	inactive
5	Mlc1	2	67.8	38.7	inactive
6	Vwa7 (von Willebrand factor A domain containing 7)	1	88.3	112	inactive
7	Vwa7 (von Willebrand factor A domain containing 7)	2	88.3	88	inactive
8	Vwa7 (von Willebrand factor A domain containing 7)	3	69.5	87.6	inactive
9	Porcn (porcupine O-acyltransferase)	1	72.2	67.2	inactive
10	Porcn (porcupine O-acyltransferase)	2	131	79.3	active
11	Porcn (porcupine O-acyltransferase)	3	83.5	47.7	inactive
12	Myot (myotilin)	1	89.5	107	inactive
13	Myot (myotilin)	2	64.1	66.3	inactive
14	Isy1 (spliceosome associated protein)	1	90.1	78.6	inactive
15	Isy1 (spliceosome associated protein)	2	144	84.1	active
16	Isy1 (spliceosome associated protein)	3	105	128	inactive
17	Spsb2 (splA/ryanodine receptor domain and SOCS box containing 2)	1	90.6	144	inactive
18	Spsb2 (splA/ryanodine receptor domain and SOCS box containing 2)	2	74.6	62.8	inactive
19	Rab7 (RAB7, member RAS oncogene family)	1	101	136	inactive
20	Rab7 (RAB7, member RAS oncogene family)	2	156	102	active
21	Rab7 (RAB7, member RAS oncogene family)	3	114	108	inactive
22	Rab7 (RAB7, member RAS oncogene family)	4	118	92.7	inactive
23	Rab7 (RAB7, member RAS oncogene family)	5	121	85.8	active
24	Rab7 (RAB7, member RAS oncogene family)	6	114	89.1	inactive
25	Slc75a1	1	96.3	85.7	inactive
26	Slc75a1	2	149	93.3	active
27	Slc75a1	3	103	80.3	inactive
28	Zfp74 (zinc finger protein 74)	1	134	83.4	active
29	Zfp74 (zinc finger protein 74)	2	88.3	69.4	inactive
30	Mrpl14 (mitochondrial ribosomal protein L14)	1	91.3	64.3	inactive
31	Mrpl14 (mitochondrial ribosomal protein L14)	2	97.4	87.9	inactive
32	Mrpl14 (mitochondrial ribosomal protein L14)	3	119	60.6	inactive
33	Kcna2	1	132	78.6	active
34	Kcna2	2	108	54.9	inactive
35	Kcna2	3	44	80.3	inactive
36	Miip (migration and invasion inhibitory protein)	1	73.9	94.6	inactive
37	Miip (migration and invasion inhibitory protein)	2	53.1	63	inactive
38	Miip (migration and invasion inhibitory protein)	3	116	64.5	inactive
39	Defb37 (defensin beta 37)	1	50.6	49.2	inactive
40	Defb37 (defensin beta 37)	2	71.6	83.9	inactive
41	Defb37 (defensin beta 37)	3	116	72.8	inactive
42	Grn (granulin)	1	67.7	79.7	inactive
43	Grn (granulin)	2	75.6	69	inactive
44	Grn (granulin)	3	37.3	56.4	inactive
45	Or8d1b (olfactory receptor family 8 subfamily D member 1B)	1	43.4	54.3	inactive
46	Or8d1b (olfactory receptor family 8 subfamily D member 1B)	2	101	82.5	inactive
47	Or8d1b (olfactory receptor family 8 subfamily D member 1B)	3	81.6	121	inactive
48	Phox2b (paired-like homeobox 2b)	1	41	37.3	inactive
49	Phox2b (paired-like homeobox 2b)	2	42.2	63.8	inactive
50	Phox2b (paired-like homeobox 2b)	3	68.5	54.8	inactive
51	Tmem202 (transmembrane protein 202)	1	99.6	93.1	inactive
52	Tmem202 (transmembrane protein 202)	2	80.3	79.1	inactive
53	Tmem202 (transmembrane protein 202)	3	62.5	94.9	inactive
54	Or8b52 (olfactory receptor family 8 subfamily B member 52)	1	28.3	44.2	inactive
55	Or8b52 (olfactory receptor family 8 subfamily B member 52)	2	47.8	49.3	inactive
56	Or8b52 (olfactory receptor family 8 subfamily B member 52)	3	111	83	inactive
57	Mtfp1 (mitochondrial fission process 1)	1	93.6	89.7	inactive
58	Mtfp1 (mitochondrial fission process 1)	2	91.3	75.8	inactive
59	Mtfp1 (mitochondrial fission process 1)	3	78.7	68.4	inactive
60	Luc7l2 (LUC7-like 2 (S. cerevisiae))	1	65	73.3	inactive
61	Luc7l2 (LUC7-like 2 (S. cerevisiae))	2	46.7	64.2	inactive
62	Luc7l2 (LUC7-like 2 (S. cerevisiae))	3	76.6	81.2	inactive
63	Rpusd1 (RNA pseudouridylate synthase domain containing 1)	1	78.4	54.5	inactive
64	Rpusd1 (RNA pseudouridylate synthase domain containing 1)	2	57.6	69	inactive
65	Rpusd1 (RNA pseudouridylate synthase domain containing 1)	3	85.7	86.3	inactive
66	Rrp15 (ribosomal RNA processing 15 homolog)	1	111	45.9	inactive
67	Rrp15 (ribosomal RNA processing 15 homolog)	2	59.9	54.2	inactive
68	Rrp15 (ribosomal RNA processing 15 homolog)	3	79.5	58.1	inactive
69	Capza3 (capping actin protein of muscle Z-line subunit alpha 3)	1	59.5	60.6	inactive
70	Capza3 (capping actin protein of muscle Z-line subunit alpha 3)	2	68.9	67.4	inactive
71	Capza3 (capping actin protein of muscle Z-line subunit alpha 3)	3	74	80.4	inactive
72	Trp53bp1 (transformation related protein 53 binding protein 1)	1	44.7	47.9	inactive
73	Trp53bp1 (transformation related protein 53 binding protein 1)	2	48.8	49.3	inactive
74	Trp53bp1 (transformation related protein 53 binding protein 1)	3	34.9	49.2	inactive
75	Tap1 (transporter 1, ATP-binding cassette, sub-family B (MDR/TAP))	1	97.3	95.1	inactive
76	Tap1 (transporter 1, ATP-binding cassette, sub-family B (MDR/TAP))	2	69.9	65.3	inactive
77	Tap1 (transporter 1, ATP-binding cassette, sub-family B (MDR/TAP))	3	90.4	81	inactive
78	Otop3 (otopetrin 3)	1	40.1	96.5	inactive
79	Otop3 (otopetrin 3)	2	78	22.8	inactive
80	Otop3 (otopetrin 3)	3	89.7	71.4	inactive
81	Atp5f1b (ATP synthase F1 subunit beta)	1	87.1	101	inactive
82	Atp5f1b (ATP synthase F1 subunit beta)	2	66.9	70.6	inactive
83	Atp5f1b (ATP synthase F1 subunit beta)	3	65.1	53.4	inactive
84	Ecrg4 (ECRG4 augurin precursor)	1	101	79.9	inactive
85	Ecrg4 (ECRG4 augurin precursor)	2	52.3	67.2	inactive
86	Ecrg4 (ECRG4 augurin precursor)	3	109	56.6	inactive

An excerpt from above, limited to “GFP, % of control”:
Rab7 (RAB7, member RAS oncogene family) #5: 121
Rab7 (RAB7, member RAS oncogene family) #6: 114
Slc75a1 #1: 96.3
Slc75a1 #2: 149
